# Test results from PubChem BioAssay AID504444 (National Center for Advancing Translational Sciences (NCATS), 2011).
# The campaign covered roughly 360,000 compounds. About 7,500 (2.1%) were called active. This list was built around the results that the source calls inconclusive (neither active nor inactive); the mix of calls is not that of the screen. Calls come from the whole dose curve; as a rule, active = well fitted inhibition curve with a large enough effect; inconclusive = small, poorly fitted or top-dose-only effect, or effect the other way; inactive = flat fitted curve, though single readings scatter. A potency beside an inconclusive call is a rough fit, not a confirmed value.
# Test: Nrf2 qHTS screen for inhibitors; note: nearly all actives have a fitted effect of over 60% in size
# Details: A549 ARE-Fluc reporter, luciferase luminescence, 18-24 h; activity change, negative = inhibition: at 46 µM (top of the series)
# How it was run: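 Nrf2 function is reported as luminescence of an ARE-controlled luciferase in A549 cells. Compounds were tested at several concentrations, and a CellTiter-Fluor read on the same wells flagged cytotoxicity.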
# % is set by controls: 0 for no effect and ±100 for the full control effect; potency is the fitted concentration of half-maximal effect.
Structure (SMILES),"activity change, negative = inhibition",Potency
O=C(NCCOC(=O)c1ccc(C(=O)OCCNC(=O)c2ccccc2)o1)c1ccccc1,inconclusive: 40.3% [activator],–
COc1ccc(S(=O)(=O)N2CCN(c3ccccc3F)CC2)cc1-c1noc(C)n1,–,"inconclusive: 32.6 µM [activator, single point]"
CC1CN(C(=O)COC(=O)c2ccc(N)c([N+](=O)[O-])c2)CC(C)O1 (centres undefined),–,"inconclusive: 29.1 µM [activator, single point]"
O=C1CN(c2nc(-c3cccnc3)nc3sc4c(c23)CCCC4)CCN1,–,active: 11.6 µM
O=C(NNC(=O)c1ccncc1)Nc1cc(Cl)ccc1Cl,–,"inconclusive: 11.6 µM [activator, partial curve, poor fit]"
O=C(NCC(c1cccnc1)N1CCN(c2ccccc2F)CC1)c1cccc(Cl)c1 (centres undefined),–,active: 20.6 µM
FC(F)(F)c1ccnc(Sc2n[nH]c(C(F)(F)F)n2)c1,–,"inconclusive: 14.6 µM [falling, partial curve, poor fit]"
CCc1cc(Cn2nc(-c3ccccc3)cc2C(=O)NCc2cccc(C(F)(F)F)c2)on1,–,"inconclusive: 23.1 µM [falling, single point]"
O=C(Nc1ccc(CN2CCOCC2)cc1)c1ccc(Cl)cc1Cl,–,"inconclusive: 16.4 µM [falling, single point]"
Cc1ccccc1-c1nc(CS(=O)(=O)CC(=O)N(C)C2CCCCC2)c(C)o1,–,"inconclusive: 29.1 µM [falling, single point]"
Cn1cc(Cl)c(-c2nc3ccccc3[nH]2)n1,–,"inconclusive: 3.26 µM [activator, full curve]"
Cc1cc2c(cc1S(=O)(=O)NCc1ccccc1Cl)OCCN2C,–,"inconclusive: 6.51 µM [activator, full curve, poor fit]"
Cc1cc(-c2nc3cccnc3s2)ccc1NS(=O)(=O)c1ccc2c(c1)OCCO2,–,"inconclusive: 29.1 µM [falling, single point]"
COC(=O)c1ccccc1NC1OC(=O)c2ccccc21 (centres undefined),inactive: -6.88%,–
O=C(c1ccc2c(c1)OCO2)N1CCN=C1SCc1cccnc1,–,"inconclusive: 9.2 µM [falling, partial curve]"
CCCCSCCCNC(=O)CN1C(=O)c2cccnc2Oc2ccc(Cl)cc21,inactive: 16.2%,–
CCOc1ccc(-c2nonc2NC(=O)c2oc3cc(C)ccc3c2C)cc1,–,"inconclusive: 10.3 µM [falling, partial curve]"
COc1cc(C(=O)N2CCN(c3ccccc3)CC2)c([N+](=O)[O-])cc1OC,–,"inconclusive: 25.9 µM [falling, partial curve, poor fit]"
CS(=O)(=O)N(CC(=O)Nc1ccccc1C(=O)N1CCOCC1)c1ccc2c(c1)OCO2,–,"inconclusive: 6.51 µM [activator, single point]"
Cc1c(C(=O)NCCC2=CCCCC2)sc2ncnc(N3CCCCC3C)c12 (centres undefined),–,"inconclusive: 29.1 µM [falling, single point]"
CCN(CC(=O)Nc1ccc2c(c1)OCCO2)C(=O)c1ccc(C(F)(F)F)cc1,–,"inconclusive: 16.4 µM [activator, partial curve, poor fit]"
NC(=O)c1cc(S(=O)(=O)NCCc2ccc(Cl)cc2)cs1,inactive: -0.623%,–

# Quoted from the listing:
# Under Potency, O=C(c1ccc2c(c1)OCO2)N1CCN=C1SCc1cccnc1 reads inconclusive: 9.2 µM [falling, partial curve]
# Under Potency, O=C(NCC(c1cccnc1)N1CCN(c2ccccc2F)CC1)c1cccc(Cl)c1 (centres undefined) reads active: 20.6 µM

# Next part

Structure (SMILES),"activity change, negative = inhibition",Potency
CCN(CC)C(=O)C1CC(c2ccc(OC)cc2)=NO1 (centres undefined),–,"inconclusive: 29.1 µM [activator, single point]"
CC1(C)CC2CC(C)(CN2C(=O)c2cc(-c3ccccc3O)on2)C1 (centres undefined),–,"inconclusive: 29.1 µM [activator, single point]"
O=C(CN(C(=O)CCC(=O)Nc1ccccn1)c1cccc(F)c1)NCc1ccc2c(c1)OCO2,–,"inconclusive: 0.231 µM [activator, full curve, poor fit]"
Cc1ccc(O)c(C(CC(=O)NCC2(c3ccccc3)CCCC2)c2ccccc2)c1 (centres undefined),–,"inconclusive: 25.9 µM [falling, single point]"
Cc1cc(Cl)cc2sc(=S)[nH]c12,inactive: 14%,–
O=C(c1cc(-c2ccc(Cl)cc2Cl)on1)N1CCOCC1,–,"inconclusive: 0.517 µM [activator, full curve, poor fit]"
COc1cccc(N2C(=O)c3ccccc3C2=O)n1,inactive: 4.02%,–
Cc1cc(C(=O)Nc2ccc(Cl)c(S(=O)(=O)N3CCOCC3)c2)c2ccccc2n1,–,"inconclusive: 29.1 µM [falling, single point]"
CCN(C(=O)COC(=O)c1ccc([N+](=O)[O-])o1)C1CCCCC1,–,"inconclusive: 4.61 µM [falling, partial curve, poor fit]"
O=C(CCCOc1ccc(Cl)cc1Cl)Nc1ccccc1C(=O)O,–,"inconclusive: 20.6 µM [activator, partial curve]"
CCOC(=O)c1c(SCCN2CCCC2)n(-c2ccccc2)c(=S)n(-c2ccccc2)c1=O,–,"inconclusive: 29.1 µM [activator, partial curve, poor fit]"
O=C1NCCCC1C(=O)N/N=C/c1ccccc1O (centres undefined),–,"inconclusive: 29.1 µM [falling, single point]"
CC(=O)N1CCOc2cc(S(=O)(=O)Nc3cccc(C(F)(F)F)c3)c(Cl)cc21,–,"inconclusive: 25.9 µM [activator, single point]"
COc1ccc(NC(C)=O)cc1NC(C)C(=O)Nc1cccc(S(=O)(=O)N2CCOCC2)c1 (centres undefined),inactive: -1.29%,–
CCOC(=O)c1ccccc1NC(=O)C(=O)Nc1ccc2nc3n(c(=O)c2c1)CCCCC3,inactive: 7.88%,–
CCc1cccc(-n2c(C)nc3c(cnn3-c3ccc(Cl)cc3)c2=O)c1,–,active: 16.4 µM
Cc1ccc(-n2c(SCC(=O)N/N=C/c3c(C)nn(-c4ccccc4)c3C)nc3ccccc3c2=O)cc1,–,"inconclusive: 8.2 µM [falling, partial curve, poor fit]"
O=C(NCC1CCCCC1)c1ccc(F)cc1Cl,–,"inconclusive: 16.4 µM [activator, partial curve]"
Cn1c(=O)c(C(=O)c2ccc(S(C)(=O)=O)c(Cl)c2Cl)c(O)c2ccccc21,–,"inconclusive: 18.4 µM [falling, partial curve, poor fit]"
O=C(COC(=O)C1=Cc2ccccc2OC1)NCc1ccco1,–,"inconclusive: 6.51 µM [falling, partial curve, poor fit]"
CC(=O)N1CC(C)Sc2ccc(S(=O)(=O)NCCc3cccc(C)c3)cc21 (centres undefined),–,"inconclusive: 20.6 µM [falling, single point]"
COc1cccc(NC(=O)c2ccc(N3C(=O)C4CC=CCC4C3=O)cc2)c1 (centres undefined),–,"inconclusive: 2.91 µM [falling, partial curve, poor fit]"

Structure (SMILES),"activity change, negative = inhibition",Potency
CC(=O)Nc1ccc(S(=O)(=O)N(Cc2ccccc2)C(C)C)cc1,–,"inconclusive: 32.6 µM [falling, single point]"
COc1ccc(OC)c(NC(=O)Cc2coc3ccc(C(C)C)cc23)c1,–,"inconclusive: 29.1 µM [falling, single point]"
Cc1cc(C)c2nc(-c3ccncc3)cc(C(=O)N3CCN(Cc4ccccc4Cl)CC3)c2c1,–,"inconclusive: 29.1 µM [falling, single point]"
O=c1oc2cc(Cl)ccc2n1CSc1nc2ccccc2s1,–,"inconclusive: 7.31 µM [activator, partial curve]"
COC(=O)c1c(C)oc2ccc(N(C(=O)c3ccncc3)S(=O)(=O)c3ccc(C)cc3C)cc12,–,active: 6.51 µM
O=C(O)c1cccc(COc2ccccc2Cl)c1,–,"inconclusive: 6.51 µM [activator, partial curve, poor fit]"
O=C(Nc1ccc(Cl)cc1)Nc1nnc(CSCc2ccc(Cl)cc2)s1,–,"inconclusive: 11.6 µM [falling, single point]"
O=c1c2ccccc2[nH]c2ccc(F)cc12,–,"inconclusive: 13 µM [falling, partial curve]"
Cn1cnnc1SCc1ccc(C(=O)N=Nc2c(O)n(Cc3ccc(Cl)cc3)c3ccccc23)cc1,inactive: -17%,–
CSc1ccccc1OCc1cc(C(=O)N2CCc3c(Cl)cccc3C2)no1,–,active: 9.2 µM
CC(=O)c1ccc(NS(=O)(=O)c2ccc3ccccc3c2)cc1,–,"inconclusive: 14.6 µM [falling, partial curve, poor fit]"
COc1cc2[nH]c(=O)c(C(=O)NCc3ccccc3Cl)c(O)c2cc1OC,–,"inconclusive: 4.61 µM [falling, single point]"
Cc1cc(C)nc(Nc2n[nH]c(-c3ccccc3N)n2)n1,–,"inconclusive: 10.3 µM [activator, partial curve]"
c1ccc(CCc2nc(-c3cccnc3)no2)cc1,inactive: 7.26%,–
CN(C)C(=O)c1cccn(Cc2ccc(C(F)(F)F)cc2)c1=O,–,"inconclusive: 4.11 µM [activator, partial curve, poor fit]"
O=C(Cn1cnc2c(cnn2-c2ccccc2)c1=O)Nc1cc(S(=O)(=O)N2CCOCC2)ccc1Cl,–,"inconclusive: 11.6 µM [falling, partial curve, poor fit]"
Cc1ccccc1NC(=O)c1ccc(CN2CCC(Cc3ccccc3)CC2)cc1,–,"inconclusive: 23.1 µM [falling, single point]"
CC(C)CC(=O)Nc1ccccc1N1CCN(c2ccc(F)cc2)CC1,–,"inconclusive: 20.6 µM [falling, partial curve, poor fit]"
CCC1=C(OC(=O)N(CC)CC)N2C(=O)OC(=NCc3ccccc3)[C@]2(C)[C@H]2C1=CC[C@H]1C(=O)NC(=O)[C@H]12,–,active: 18.4 µM
Cc1cccc(C)c1NC(=O)CSC(=O)c1sc2ccccc2c1Cl,–,"inconclusive: 14.6 µM [falling, partial curve]"
